Assay results taken from PubChem BioAssay (NCATS).
Inconclusive means that the source gave no clear call. Such entries were picked first, then a sample of the others. For part of these data: Potencies of inconclusive entries are doubtful fits and often do not repeat. Calls of active or inactive are those of the source.

Amino acid sequences for entries named in this document (tags omitted). A change or cut given only in a name is not applied to a line headed by its entry.
UniProt P08482: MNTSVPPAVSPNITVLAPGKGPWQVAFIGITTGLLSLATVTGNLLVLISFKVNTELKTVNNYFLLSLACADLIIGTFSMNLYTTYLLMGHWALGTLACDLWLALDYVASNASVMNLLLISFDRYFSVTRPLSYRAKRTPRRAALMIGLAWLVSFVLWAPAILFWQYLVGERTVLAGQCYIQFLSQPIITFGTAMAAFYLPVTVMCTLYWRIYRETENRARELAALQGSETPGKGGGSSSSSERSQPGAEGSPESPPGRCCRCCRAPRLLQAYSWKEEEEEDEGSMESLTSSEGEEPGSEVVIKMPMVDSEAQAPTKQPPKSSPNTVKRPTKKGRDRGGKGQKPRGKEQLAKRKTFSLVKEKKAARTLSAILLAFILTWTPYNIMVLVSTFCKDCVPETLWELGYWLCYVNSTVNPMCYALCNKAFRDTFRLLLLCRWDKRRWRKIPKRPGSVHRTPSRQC
UniProt P02791: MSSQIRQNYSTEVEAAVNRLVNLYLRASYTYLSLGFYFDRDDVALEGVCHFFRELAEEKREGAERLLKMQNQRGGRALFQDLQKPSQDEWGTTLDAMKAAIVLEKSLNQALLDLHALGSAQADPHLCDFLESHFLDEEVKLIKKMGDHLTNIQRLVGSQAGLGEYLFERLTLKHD
UniProt P54132: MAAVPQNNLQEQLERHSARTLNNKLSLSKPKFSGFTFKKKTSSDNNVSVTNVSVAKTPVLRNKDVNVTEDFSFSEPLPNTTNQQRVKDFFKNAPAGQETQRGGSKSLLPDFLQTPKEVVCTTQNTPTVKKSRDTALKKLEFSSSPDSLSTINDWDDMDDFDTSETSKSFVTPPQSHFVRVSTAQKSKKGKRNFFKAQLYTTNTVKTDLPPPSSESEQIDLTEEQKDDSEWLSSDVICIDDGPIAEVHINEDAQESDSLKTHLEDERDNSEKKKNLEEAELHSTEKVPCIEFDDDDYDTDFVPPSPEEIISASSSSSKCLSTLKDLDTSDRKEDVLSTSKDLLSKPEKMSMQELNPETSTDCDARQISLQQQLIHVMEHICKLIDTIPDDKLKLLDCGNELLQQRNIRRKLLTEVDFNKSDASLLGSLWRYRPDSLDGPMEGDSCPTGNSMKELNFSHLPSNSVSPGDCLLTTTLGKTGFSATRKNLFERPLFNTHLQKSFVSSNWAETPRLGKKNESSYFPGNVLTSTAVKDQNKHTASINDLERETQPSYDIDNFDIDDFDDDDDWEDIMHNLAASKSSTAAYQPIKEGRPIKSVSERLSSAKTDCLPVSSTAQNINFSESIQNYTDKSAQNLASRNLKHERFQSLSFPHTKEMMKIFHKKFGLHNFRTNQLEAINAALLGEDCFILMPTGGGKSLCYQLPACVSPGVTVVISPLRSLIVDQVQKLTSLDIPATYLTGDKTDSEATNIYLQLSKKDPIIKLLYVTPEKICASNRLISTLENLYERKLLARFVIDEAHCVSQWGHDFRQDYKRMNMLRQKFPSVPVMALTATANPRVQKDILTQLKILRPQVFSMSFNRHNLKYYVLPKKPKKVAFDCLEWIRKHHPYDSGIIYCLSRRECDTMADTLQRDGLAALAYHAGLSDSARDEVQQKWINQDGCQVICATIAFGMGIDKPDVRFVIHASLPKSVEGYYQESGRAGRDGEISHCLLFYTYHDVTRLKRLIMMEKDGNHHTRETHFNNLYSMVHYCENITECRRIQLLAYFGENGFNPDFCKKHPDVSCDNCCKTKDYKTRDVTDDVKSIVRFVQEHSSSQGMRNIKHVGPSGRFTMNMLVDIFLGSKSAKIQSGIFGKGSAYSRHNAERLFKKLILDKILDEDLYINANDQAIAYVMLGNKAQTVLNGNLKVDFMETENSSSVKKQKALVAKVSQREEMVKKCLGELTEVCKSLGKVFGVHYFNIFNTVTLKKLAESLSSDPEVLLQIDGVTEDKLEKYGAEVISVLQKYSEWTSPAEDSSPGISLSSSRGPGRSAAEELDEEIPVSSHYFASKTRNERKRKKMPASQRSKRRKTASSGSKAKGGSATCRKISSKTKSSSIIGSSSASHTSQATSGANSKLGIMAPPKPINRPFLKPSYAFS
UniProt O89049, whole entry, looked up: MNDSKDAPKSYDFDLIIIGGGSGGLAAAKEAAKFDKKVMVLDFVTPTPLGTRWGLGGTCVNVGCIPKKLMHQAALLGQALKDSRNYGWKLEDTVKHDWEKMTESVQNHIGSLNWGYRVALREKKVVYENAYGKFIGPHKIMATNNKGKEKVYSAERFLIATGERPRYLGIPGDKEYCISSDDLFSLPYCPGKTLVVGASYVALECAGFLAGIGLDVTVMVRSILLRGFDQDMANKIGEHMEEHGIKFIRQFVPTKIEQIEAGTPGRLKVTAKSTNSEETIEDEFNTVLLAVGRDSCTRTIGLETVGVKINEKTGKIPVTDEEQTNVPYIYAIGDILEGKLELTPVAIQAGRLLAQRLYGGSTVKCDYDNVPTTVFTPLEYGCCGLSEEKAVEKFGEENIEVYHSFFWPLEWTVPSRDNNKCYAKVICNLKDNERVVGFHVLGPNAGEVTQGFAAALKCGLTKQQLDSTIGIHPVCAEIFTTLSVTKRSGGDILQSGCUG
UniProt P83916, whole entry, looked up: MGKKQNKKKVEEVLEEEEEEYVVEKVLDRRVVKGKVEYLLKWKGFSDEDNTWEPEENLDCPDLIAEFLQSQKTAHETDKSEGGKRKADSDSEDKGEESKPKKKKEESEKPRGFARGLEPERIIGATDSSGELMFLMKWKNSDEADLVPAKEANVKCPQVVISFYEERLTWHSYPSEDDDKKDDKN
UniProt Q96QE3: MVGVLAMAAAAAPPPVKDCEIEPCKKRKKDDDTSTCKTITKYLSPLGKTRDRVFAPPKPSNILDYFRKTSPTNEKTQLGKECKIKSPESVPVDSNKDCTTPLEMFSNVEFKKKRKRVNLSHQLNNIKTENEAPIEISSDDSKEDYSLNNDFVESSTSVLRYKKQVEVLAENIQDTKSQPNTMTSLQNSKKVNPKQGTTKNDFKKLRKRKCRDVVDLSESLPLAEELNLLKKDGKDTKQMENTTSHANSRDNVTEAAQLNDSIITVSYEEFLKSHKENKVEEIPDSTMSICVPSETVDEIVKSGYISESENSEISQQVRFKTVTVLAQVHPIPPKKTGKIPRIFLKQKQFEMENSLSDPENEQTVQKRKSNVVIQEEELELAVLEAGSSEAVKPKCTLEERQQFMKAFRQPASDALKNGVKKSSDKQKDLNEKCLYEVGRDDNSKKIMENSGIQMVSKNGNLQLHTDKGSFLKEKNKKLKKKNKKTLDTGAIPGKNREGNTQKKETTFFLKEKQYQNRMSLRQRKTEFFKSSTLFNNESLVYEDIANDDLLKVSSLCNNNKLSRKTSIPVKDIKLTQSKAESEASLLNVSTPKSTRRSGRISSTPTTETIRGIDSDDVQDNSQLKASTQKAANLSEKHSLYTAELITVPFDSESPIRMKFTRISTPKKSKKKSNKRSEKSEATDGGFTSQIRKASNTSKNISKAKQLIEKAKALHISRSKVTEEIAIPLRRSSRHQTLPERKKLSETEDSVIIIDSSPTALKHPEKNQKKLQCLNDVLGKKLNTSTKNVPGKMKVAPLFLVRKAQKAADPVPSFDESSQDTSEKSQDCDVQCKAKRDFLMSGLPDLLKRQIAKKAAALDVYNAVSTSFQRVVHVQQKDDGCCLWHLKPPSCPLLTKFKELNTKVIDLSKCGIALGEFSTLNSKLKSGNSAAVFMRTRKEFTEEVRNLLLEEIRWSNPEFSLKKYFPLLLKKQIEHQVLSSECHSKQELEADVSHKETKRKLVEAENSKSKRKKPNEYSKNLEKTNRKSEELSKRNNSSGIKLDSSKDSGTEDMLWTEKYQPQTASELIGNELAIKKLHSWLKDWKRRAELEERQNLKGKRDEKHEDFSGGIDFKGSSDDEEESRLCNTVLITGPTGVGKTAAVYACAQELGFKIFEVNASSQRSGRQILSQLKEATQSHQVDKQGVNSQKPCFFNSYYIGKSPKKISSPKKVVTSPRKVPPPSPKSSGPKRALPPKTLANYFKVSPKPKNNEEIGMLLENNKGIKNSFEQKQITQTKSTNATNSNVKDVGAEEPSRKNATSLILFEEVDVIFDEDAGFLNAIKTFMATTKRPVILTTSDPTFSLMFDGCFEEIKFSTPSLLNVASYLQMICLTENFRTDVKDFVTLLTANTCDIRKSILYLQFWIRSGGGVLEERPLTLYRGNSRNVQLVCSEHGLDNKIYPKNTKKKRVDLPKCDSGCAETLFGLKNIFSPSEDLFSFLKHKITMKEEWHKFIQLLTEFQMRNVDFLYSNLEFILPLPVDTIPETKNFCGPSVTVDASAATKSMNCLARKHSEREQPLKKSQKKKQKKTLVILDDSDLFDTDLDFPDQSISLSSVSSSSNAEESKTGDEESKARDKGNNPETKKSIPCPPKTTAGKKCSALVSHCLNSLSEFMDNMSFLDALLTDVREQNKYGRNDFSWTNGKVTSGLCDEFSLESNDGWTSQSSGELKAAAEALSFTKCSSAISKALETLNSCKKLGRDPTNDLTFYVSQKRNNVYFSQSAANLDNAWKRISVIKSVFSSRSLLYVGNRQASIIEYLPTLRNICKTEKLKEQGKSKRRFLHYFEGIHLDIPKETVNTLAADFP
UniProt Q13526, whole entry, looked up: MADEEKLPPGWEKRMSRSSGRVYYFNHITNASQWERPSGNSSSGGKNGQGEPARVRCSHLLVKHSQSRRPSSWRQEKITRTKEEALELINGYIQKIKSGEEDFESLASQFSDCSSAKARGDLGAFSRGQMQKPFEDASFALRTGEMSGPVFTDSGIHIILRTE
UniProt P15289: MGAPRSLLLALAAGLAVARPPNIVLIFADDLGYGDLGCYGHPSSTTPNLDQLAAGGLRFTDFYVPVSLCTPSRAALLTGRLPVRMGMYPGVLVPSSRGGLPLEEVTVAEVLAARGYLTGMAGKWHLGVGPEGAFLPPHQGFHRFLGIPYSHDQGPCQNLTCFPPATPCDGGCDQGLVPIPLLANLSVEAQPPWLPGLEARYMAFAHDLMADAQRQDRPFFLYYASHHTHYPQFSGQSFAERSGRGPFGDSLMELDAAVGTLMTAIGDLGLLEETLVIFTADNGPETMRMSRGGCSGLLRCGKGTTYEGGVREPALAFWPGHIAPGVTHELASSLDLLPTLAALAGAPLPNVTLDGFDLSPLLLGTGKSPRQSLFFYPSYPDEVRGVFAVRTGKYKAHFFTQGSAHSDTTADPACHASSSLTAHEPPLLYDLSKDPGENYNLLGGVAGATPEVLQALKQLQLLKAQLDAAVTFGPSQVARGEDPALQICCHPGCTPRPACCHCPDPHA
UniProt Q9BV86: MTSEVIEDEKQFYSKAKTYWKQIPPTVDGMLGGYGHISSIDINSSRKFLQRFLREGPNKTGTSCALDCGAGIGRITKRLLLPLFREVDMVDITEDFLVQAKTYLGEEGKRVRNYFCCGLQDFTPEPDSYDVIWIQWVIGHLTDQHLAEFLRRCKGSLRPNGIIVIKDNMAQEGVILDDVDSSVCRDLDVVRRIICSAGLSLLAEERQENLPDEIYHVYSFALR
UniProt O15648: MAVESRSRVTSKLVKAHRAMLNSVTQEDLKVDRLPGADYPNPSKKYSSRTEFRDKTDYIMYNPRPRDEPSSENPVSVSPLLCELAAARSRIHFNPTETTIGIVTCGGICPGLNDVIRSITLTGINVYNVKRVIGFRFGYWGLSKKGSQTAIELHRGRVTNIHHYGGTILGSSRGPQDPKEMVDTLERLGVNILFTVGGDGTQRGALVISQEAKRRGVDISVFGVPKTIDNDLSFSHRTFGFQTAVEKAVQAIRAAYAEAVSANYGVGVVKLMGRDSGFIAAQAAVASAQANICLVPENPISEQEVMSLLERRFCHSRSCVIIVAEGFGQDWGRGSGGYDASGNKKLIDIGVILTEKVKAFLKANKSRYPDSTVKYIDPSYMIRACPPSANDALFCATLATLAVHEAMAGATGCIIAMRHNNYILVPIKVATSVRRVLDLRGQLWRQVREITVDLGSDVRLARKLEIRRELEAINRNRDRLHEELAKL
UniProt P00784: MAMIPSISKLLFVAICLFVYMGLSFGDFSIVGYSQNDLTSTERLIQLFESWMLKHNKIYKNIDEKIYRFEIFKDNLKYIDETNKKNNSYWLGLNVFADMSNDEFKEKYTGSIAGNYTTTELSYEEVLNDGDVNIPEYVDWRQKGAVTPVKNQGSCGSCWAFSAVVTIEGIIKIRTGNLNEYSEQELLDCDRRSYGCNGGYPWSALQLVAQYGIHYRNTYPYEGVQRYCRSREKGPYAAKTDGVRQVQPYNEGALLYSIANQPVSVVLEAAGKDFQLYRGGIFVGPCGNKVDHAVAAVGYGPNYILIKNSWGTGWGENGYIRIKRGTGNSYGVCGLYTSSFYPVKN

Legend:
[1] = Stat Signaling Pathway (AID 446); conditions: ME-180 SIE beta-lactamase reporter, IL-6 stimulated, 5 h; at 38 µM (top of the series) unless noted
Summary of the method: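 ME-180 cells carrying a SIE-driven beta-lactamase reporter are stimulated with 40 pM IL-6 for 5 h at 37C in the presence of compound. The 460/530 nm FRET substrate ratio is read after 2.5 h at RT. Data are normalised to 300 pM IL-6 and to 125 nM JAK inhibitor controls.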

[2] = target: Cytochrome P450 3A4 (Homo sapiens) (UniProt P08684); experiment: qHTS Assay for Inhibitors and Substrates of Cytochrome P450 3A4 (AID 884)
Summary of the method: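 20 nM human CYP3A4 with 25 uM Luciferin-PPXE (at KM) in 200 mM KPO4, preincubated 10 min with compound; NADPH regeneration started a 60 min RT reaction. Luciferin detected by luminescence, normalized to 57 uM ketoconazole as full inhibition.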

[3] = qHTS Assay for Identification of Small Molecule Antagonists for NFkB Signaling Pathway (AID 895); conditions: NFkB beta-lactamase reporter cells, FRET ratio 460/530; activity change, negative = inhibition: at 38.3 µM (top of the series) unless noted
Summary of the method: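 ME-180 NFkB-bla cells (beta-lactamase under NFkB response element), plated overnight, treated with compound then 10 pM TNF alpha (about EC50) for 5 hrs at 37 C. LiveBLAzer FRET read at 460/530 nm emission, 405 nm excitation.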

[4] = qHTS Assay for Identification of Small Molecule Agonists for Thrombopoietin (TPO) Signaling Pathway (AID 917)
Summary of the method: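 IL-3-dependent murine pro-B Ba/F3 cells, stably transfected with human TPO receptor and GpIIb-promoter luciferase, are incubated 24 hrs at 37 C with test compound and 26 pM TPO; luciferase signal is read after 10 min at room temperature.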

[5] = qHTS Assay for Identification of Small Molecule Antagonists for Thrombopoietin (TPO) Signaling Pathway (AID 918); conditions: TPO-dependent cell signaling reporter, antagonist mode; activity change, negative = inhibition: at 38.5 µM (top of the series)
Summary of the method: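 First, Ba/F3 reporter cells expressing human TPO receptor were held overnight without IL-3. Next, compound and 26 pM TPO were added. After 24 hrs incubation at 37 C, luciferase luminescence under the Glycoprotein IIb promoter was recorded.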

[6] = target: Muscarinic acetylcholine receptor M1 (Rattus norvegicus) (UniProt P08482); experiment: qHTS Assay for Antagonists of Acetylcholine Muscarinic M1 Receptor: Kinetic Measurement of Intracellular Calcium Response (AID 943)
Summary of the method: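 Intracellular calcium flux, recorded with Fluo-4 in a kinetic plate reader, served as signal; the response to carbachol at EC80 (100 nM final) was taken as maximal over minimal fluorescence after a 10 min compound pre-incubation in rat M1-CHO cells.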

[7] = target: Muscarinic acetylcholine receptor M1 (Rattus norvegicus) (UniProt P08482); experiment: qHTS Assay for Antagonists of Acetylcholine Muscarinic M1 Receptor: Measurement of IP-One Response (AID 944)
[8] = qHTS for differential inhibitors of proliferation of Plasmodium falciparum line GB4 (AID 1816); conditions: Potency: Plasmodium falciparum GB4 proliferation inhibition
[9] = qHTS for differential inhibitors of proliferation of Plasmodium falciparum line 3D7 (AID 1876)
[10] = target: Ferritin light chain (Equus caballus) (UniProt P02791); experiment: qHTS Validation Assay for Identification of Novel General Anesthetics (AID 2323)
Summary of the method: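 Normalized fluorescence response, scaled between free 1-AMA and 1-AMA/apoferritin complex, fitted to a four-parameter Hill equation for concentration-effect values. Binding mix: 10 uM horse-spleen apoferritin, 50% saturated 1-AMA in PBS; read 380/535 nm after 10 min.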

[11] = target: RecQ-like DNA helicase BLM (Homo sapiens) (UniProt P54132); experiment: qHTS Validation Assay for Inhibitors of Bloom's syndrome helicase (BLM) (AID 2364)
Summary of the method: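 50 nM BLM preincubated 15 min at room temperature with compound in pH 8.0 Tris buffer containing 2.5 ug/ml poly(dI-dC); started with 200 nM TAMRA/BHQ-2 forked duplex and 2 mM ATP (final). Unwinding read as TAMRA fluorescence increase, two reads 2 h apart.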

[12] = Validation screen for small molecules that induce DNA re-replication in MCF 10A normal breast cells (AID 463097)
Summary of the method: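 Following 48 hr compound incubation (37 C, 5% CO2), MCF 10A cells receive Hoechst for 40 min at 37 C. Nuclei are then scanned (excitation 405 nm, emission 500-530 nm) for total fluorescence intensity.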

[13] = target: Thioredoxin reductase 1, cytoplasmic (Rattus norvegicus) (UniProt O89049); experiment: qHTS Assay for Inhibitors of Mammalian Selenoprotein Thioredoxin Reductase 1 (TrxR1) (AID 488773); conditions: Potency: inhibition
Summary of the method: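 Steps: enzyme (90 nM) plus NADPH (400 uM final), 5 min at ~22 deg C; compound added, 15 min; selenite (400 uM final) added; fluorescence followed for 8 min. Concentration-response curves derived from the normalized delta values.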

[14] = target: Chromobox protein homolog 1 (Homo sapiens) (UniProt P83916); experiment: qHTS Validation Assay for Inhibitors of HP1-beta Chromodomain Interactions with Methylated Histone Tails (AID 488953)
Summary of the method: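 Measured as loss of AlphaScreen luminescence from streptavidin donor and nickel acceptor beads (10 ug/mL final) bridging HP1-beta and biotin-H3(1-18)K9me3, each 50 nM. Compounds met the preassembled complex for 30 min at RT.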

[15] = target: ATPase family AAA domain-containing protein 5 (Homo sapiens) (UniProt Q96QE3); experiment: Validation screen for small molecules that inhibit ELG1-dependent DNA repair in human embryonic kidney (HEK293T) cells expressing luciferase-tagged ELG1 (AID 493107); conditions: HEK293T ELG1-luciferase level, luminescence, 5-fluorouridine co-treatment, 16 h; activity change, negative = decrease: at 46.1 µM (top of the series)
Summary of the method: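 Quantitative HTS in HEK293T cells carrying luciferase-tagged ELG1, stimulated with 5-fluorouridine alongside compound for 16 hr. Loss of luciferase signal marks inhibition of ELG1 response.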

[16] = target: Peptidyl-prolyl cis-trans isomerase NIMA-interacting 1 (Homo sapiens) (UniProt Q13526); experiment: qHTS Validation Assay to Find Inhibitors of Pin1 (AID 504536)
Summary of the method: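 Fluorescence polarization competition: compounds (titration) displace HiFluor-488-labeled Pin1-1b peptide from Pin1 (0.3 uM final) in pH 7.5 HEPES buffer with DTT, 10 min at room temperature; %Activity normalized to no-enzyme wells, curves fitted.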

[17] = target: Arylsulfatase A (Homo sapiens) (UniProt P15289); experiment: qHTS screen for enhancers of Arylsulfatase A (ASA1): LOPAC Validation Assay (AID 720538)
Summary of the method: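 Cell-based enhancement test: residual ASA activity in SV40-transformed I179S patient fibroblasts is measured by pNCS turnover (0.5mM final, 14h, room temperature) following 48h compound incubation; higher fluorescence indicates activation.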

[18] = test system: Zika virus NS2B-NS3 protease (unlinked); experiment: Optimization of GU AMC qHTS for Zika virus inhibitors: Unlinked NS2B-NS3 protease assay (AID 1347151)
Summary of the method: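 In this qHTS, compounds acted on 25 nM unlinked Zika NS2B–NS3 in pH 8.0 Tris/Tween buffer. Cleavage of an AMC peptide ran 15 min at room temperature, to about 20% conversion.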

[19] = target: Lysine-specific demethylase 5B (Homo sapiens) (UniProt Q9UGL1); experiment: Optimization screen for KDM5B Histone Demethylases FDH coupled qHTS against the LOPAC library (AID 1347166); conditions: KDM5B demethylation, FDH-coupled NADH fluorescence; activity, negative = inhibition: at 57.5 µM (top of the series) unless noted
Summary of the method: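 KDM5BDeltaAP (200nM final) preincubated 10 min with compound, then 12.5uM H3K4Me3, 25uM a-ketoglutarate, ascorbate, Fe(II), NAD+ and FDH added; 50mM HEPES pH 7.5, 0.01% Tween-20. NADH fluorescence (340/450 nm) change over 30 min, room temperature.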

[20] = target: N-terminal Xaa-Pro-Lys N-methyltransferase 1 (Homo sapiens) (UniProt Q9BV86); experiment: Confirmatory qHTS for Inhibitors of N-terminal methyltransferase 1 (NTMT1): MTaseGlo Assay (AID 1645874)
Summary of the method: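 NTMT1 (125 nM) preincubated 15 min with compound and 100 uM SAM, then 1 uM SPKRIA peptide added for 30 min at room temperature. SAH detected by MTase-Glo luminescence; normalized to no-enzyme and DMSO controls, fitted to 4-parameter Hill.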

[21] = target: Endonuclease 4 (Escherichia coli (strain K12)) (UniProt P0A6C1); experiment: Counterscreen for APE1 Inhibitors: qHTS Validation Assay for Inhibitors of Endonuclease IV (AID 1708)
Summary of the method: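 Cleavage of a quenched abasic-site DNA duplex (50 nM, 5'-TAMRA, 3'-BHQ-2) by 2 nM enzyme is followed as fluorescence increase. Compounds are preincubated with enzyme 15 min at room temperature before substrate addition.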

[22] = qHTS for differential inhibitors of proliferation of Plasmodium falciparum line 7G8 (AID 1815)
[23] = qHTS for differential inhibitors of proliferation of Plasmodium falciparum line Dd2 (AID 1882); conditions: Potency: Plasmodium falciparum Dd2 proliferation inhibition
Summary of the method: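 SYBR Green I DNA fluorescence read-out, ex 485/em 535 nm. Signals were normalized to 0.29 uM artemisinin and DMSO wells, then corrected using vehicle-only plates flanking each stack. Parasite growth ran 72 h in erythrocytes before lysis.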

[24] = qHTS for differential inhibitors of proliferation of Plasmodium falciparum line HB3 (AID 1886); conditions: Potency: Plasmodium falciparum HB3 proliferation inhibition
[25] = Validation screen for inhibitors of Lassa infection (AID 463096)
[26] = target: Ubiquitin carboxyl-terminal hydrolase 2 (Homo sapiens) (UniProt O75604); experiment: qHTS Validation Assay for Inhibitors of Ubiquitin-specific Protease USP2a Using CHOP2 as the Reporter (AID 463106)
Summary of the method: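 USP2 core (10 nM final) was preincubated with compound 30 min at RT in pH 8.0 Tris/CaCl2/beta-ME/CHAPS buffer. Ub-CHOP2 and reporter substrate (25 nM final each) were then added, with fluorescence (Ex 485/Em 531) read after 60 min. Data were normalized to NEM full inhibition and fitted to concentration-response curves.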

[27] = target: ATP-dependent 6-phosphofructokinase (Trypanosoma brucei brucei) (UniProt O15648); experiment: qHTS Validation Assay to Find Inhibitors of T. brucei phosphofructokinase (AID 485368)
Summary of the method: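 Activity was read as ADP production by luminescence (ADP-Glo) after 45 min at room temperature. The enzyme was 1.25nM PFK in 0.1M TEA pH 8.0 with 0.5 mM F6P, 0.1mM ATP and 5 mM MgCl2. Compounds were titrated up to 57 uM and % activity normalized to no-enzyme and full-enzyme controls.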

[28] = qHTS Assay for Identifying Gametocytocidal Compounds (AID 743244); conditions: P. falciparum 3D7 stage III-V gametocytes, alamarBlue, 72 h; max response: hits give low values
Summary of the method: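 Stage III–V gametocytes of P. falciparum 3D7 were seeded at 20,000 cells/well onto pre-dispensed compounds. After 72 h, 37 °C, 5% CO2, alamarBlue was added for another 24 h.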

[29] = target: N-terminal Xaa-Pro-Lys N-methyltransferase 1 (Homo sapiens) (UniProt Q9BV86); experiment: qHTS Assay for Inhibitors of N-terminal methyltransferase 1 (NTMT1): LOPAC validation of the NTMT1 SAHH-coupled ThioGlo3 Assay (AID 1347143)
Summary of the method: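 Recombinant human NTMT1 (125nM) was pre-incubated 1 min at room temperature with compounds over a concentration range, then a mix of 100uM SAM, 10uM SAHH and 15uM ThioGlo3 (concentrations in added reagent) was added. ThioGlo3 fluorescence (ex 340/em 450nm) after 30 min was normalized to the initial reading.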

Papain (Carica papaya) = Papain (Carica papaya) (UniProt P00784); experiment: Primary qHTS assay for inhibitors of the protease papain (AID 1645873)

NC(=O)CI
active: Potency [5] 3.16 µM | Potency [20] 12.3 µM
inconclusive: activity, negative = inhibition [1] -33.8% [inhibitor] | Potency [2] 0.0631 µM [inhibitor, full curve] | Potency [4] 3.16 µM [inhibitor, partial curve] | Potency [7] 3.16 µM [inhibitor, partial curve, poor fit] | Potency [10] 39.8 µM [inhibitor, partial curve] | Potency [11] 0.631 µM [inhibitor, full curve, poor fit] | Potency [12] 28.2 µM [activator, single point] | Potency [13] 21.2 µM [inhibitor, single point] | Potency [14] 50.1 µM [inhibitor, partial curve] | Potency [18] 37.7 µM [inhibitor, single point] | Potency [19] 25.1 µM [inhibitor, partial curve, poor fit]
inactive: Potency [3] | Potency [6] | Potency [8] | Potency [9] | Potency [15] | Potency [16] | Potency [17]

CC(N)c1cccc(Cl)c1Cl (stereo not drawn)
inconclusive: Potency [22] 7.94 µM [inhibitor, partial curve] | Potency [23] 10 µM [inhibitor, single point] | Potency [10] 44.7 µM [inhibitor, partial curve] | Potency [27] 42.6 µM [falling, single point] | Potency [17] 4.26 µM [activator, single point] | Potency [28] 5.62 µM [inhibitor, single point]
inactive: Potency [21] | Potency [24] | Potency [25] | Potency [12] | Potency [26] | Potency [29] | Potency (Papain (Carica papaya))
